{
  "source": "patent US8501816B2",
  "about": "“Antitussive compositions comprising memantine” (Cerecor, Inc., priority 2010, dated 2013)",
  "system": "citric acid induced cough",
  "assay": "Citric acid induced cough in conscious guinea pigs",
  "details": "for Mean ± sem cumulative coughs / ≧15 Cumulative coughs/total number of guinea pigs: potentially synergistic agents",
  "data": [
    {"compound": "CN(C)CCOC(c1ccccc1)c1ccccc1", "note": "[Diphenhydramine]", "values": [
      {"measurement": "Mean ± sem cumulative coughs", "setting": "10 mg/kg po", "value": "25 ± 5"},
      {"measurement": "≧15 Cumulative coughs/total number of guinea pigs", "setting": "10 mg/kg po", "value": "3/3"},
      {"measurement": "Mean ± sem cumulative coughs", "setting": "30 mg/kg po", "value": "12 ± 2"},
      {"measurement": "≧15 Cumulative coughs/total number of guinea pigs", "setting": "30 mg/kg po", "value": "2/6"},
      {"measurement": "≧15 Cumulative coughs/total number of guinea pigs", "setting": "100 mg/kg po", "value": "0/5"},
      {"measurement": "Effect of single agent on citric acid (0.01-0.3M) induced cough", "setting": "oral, 60 minutes prior, memantine 3, guaifenesin 100, diphenhydramine 10, benzonatate 30, ambroxol 100 mg/kg", "value": "failed to inhibit cough"}
    ]}
  ]
}
